Experimental data: PubChem BioAssay AID1259308 (NCATS, 2017)

Purpose: 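Knock-downs that increase output of a recombinant reporter protein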 (primary screen)
Cell system: human HEK293 embryonic kidney cells stably expressing firefly luciferase (HEK-CMV-Luc2-Hygro)
Knock-down reagent: single siRNA against human genes, 0.8 pmol siRNA per well
Timing: 72 h
Read-out: 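Reporter luminescence and viable-cell signal on separate replicate plates, given as percent of non-targeting control and median/MAD z-scores, plus per-cell luciferase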
Direction: total luciferase, z-score: higher = more reporter protein produced
Active means: 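An siRNA counts as active if its total luciferase robust z-score exceeds 3; genes with two or more such siRNAs out of three were retested with fresh siRNAs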
Calls: active = raised luciferase; inactive = no rise
In all, the deposit lists about 59,000 reagents; shown is a part drawn at random. About 1,510 of all reagents (2.6%) were called active. 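Calls use total luciferase alone and ignore viability, so some active siRNAs may act by altering cell number.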 Reagents against one gene are numbered here. Not all columns of the deposit are shown.

total luciferase, z-score, by gene and reagent
TUBB7P: #1 0.144 inactive; #2 -0.00988 inactive; #3 -0.646 inactive
CTDSP2: #1 2.11 inactive; #2 2.15 inactive; #3 -0.148 inactive
GTF2H1: #1 -0.22 inactive; #2 -1.04 inactive; #3 -0.907 inactive
AMY2B: #1 1.35 inactive; #2 0.661 inactive; #3 -1.12 inactive
NFKBID: #1 0.0785 inactive; #2 -2.17 inactive; #3 1.8 inactive
LINC03007: #1 -0.399 inactive; #2 1.83 inactive; #3 0.818 inactive
NUDT9: #1 -0.929 inactive; #2 -0.357 inactive; #3 -0.33 inactive
OR7A17: #1 -0.961 inactive; #2 0.296 inactive; #3 -0.825 inactive
TRIM28: #1 2.09 inactive; #2 -0.418 inactive; #3 -0.344 inactive
ILF2: #1 1.81 inactive; #2 2.36 inactive; #3 -1.39 inactive
MAGEB10: #1 0.568 inactive; #2 0.569 inactive; #3 -2.13 inactive
NIPAL4: #1 1.16 inactive; #2 -2.08 inactive; #3 -0.94 inactive
LINC02817: #1 0.998 inactive; #2 -1 inactive; #3 6.61 active

Hits (from the list above):
total luciferase, z-score, by gene and reagent
LINC02817: #3 6.61 active
